Experimental data published in patent EP0622356A1, “Indoloylguanidine derivatives as inhibitors of sodium-hydrogen exchange” (SUMITOMO PHARMACEUTICALS COMPANY, LIMITED, priority 1993, dated 1994).
Structures can show the parent of a compound that is named as a salt. At least one structure is not confirmed: it was looked up by name or label, or the drawing left a doubt.

Sequences of proteins named here, by UniProt entry; tags and fusion partners are left off.
UniProt P26431, whole entry: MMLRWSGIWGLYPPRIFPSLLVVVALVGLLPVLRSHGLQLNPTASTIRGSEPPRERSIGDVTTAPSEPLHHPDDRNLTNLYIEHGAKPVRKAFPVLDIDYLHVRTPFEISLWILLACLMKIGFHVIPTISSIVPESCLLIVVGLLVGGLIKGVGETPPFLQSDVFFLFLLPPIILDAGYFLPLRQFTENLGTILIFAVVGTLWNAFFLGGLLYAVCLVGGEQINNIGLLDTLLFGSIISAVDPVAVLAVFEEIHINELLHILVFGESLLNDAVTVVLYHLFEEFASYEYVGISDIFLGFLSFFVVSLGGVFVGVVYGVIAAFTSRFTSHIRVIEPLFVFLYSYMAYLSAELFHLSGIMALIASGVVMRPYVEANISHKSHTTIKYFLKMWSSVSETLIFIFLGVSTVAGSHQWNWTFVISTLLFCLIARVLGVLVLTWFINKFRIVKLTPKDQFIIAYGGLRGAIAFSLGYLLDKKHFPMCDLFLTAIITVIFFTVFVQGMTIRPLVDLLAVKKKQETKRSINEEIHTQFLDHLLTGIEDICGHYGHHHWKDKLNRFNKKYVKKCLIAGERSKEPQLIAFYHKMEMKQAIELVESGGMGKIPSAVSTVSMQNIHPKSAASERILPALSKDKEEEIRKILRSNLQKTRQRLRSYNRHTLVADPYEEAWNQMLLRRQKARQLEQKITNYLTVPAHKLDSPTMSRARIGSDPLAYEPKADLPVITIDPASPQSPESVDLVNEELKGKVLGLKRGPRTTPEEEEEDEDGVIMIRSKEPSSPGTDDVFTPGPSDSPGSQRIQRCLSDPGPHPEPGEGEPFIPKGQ

Target: T1, Na⁺/H⁺ exchanger (Rattus norvegicus, UniProt P26431)
T1 construct: using the vascular smooth muscle cells isolated from the rat thoracic aorta; endogenous in cells; host or cells: primary vascular smooth muscle cells isolated from rat thoracic aorta
Assay: Inhibition of Na⁺/H⁺ exchanger activity in vitro (change in cell viability during acid loading)
Assay type: cell-based
Details: minimum effective concentration, vascular smooth muscle cells isolated from the rat thoracic aorta
Experimental: The experiment was performed by modifying the method of Mungre et al. described in Exp. Cell Res., 193, 236 (1991). That is, inhibition of the Na⁺/H⁺ exchanger activity was evaluated by the change in cell viability during acid loading, using the vascular smooth muscle cells isolated from the rat thoracic aorta.
The compounds of the present invention shown in Examples were evaluated by the minimum effective concentration (MEC) for the inhibition of the Na⁺/H⁺ exchanger activity.

With `NC(N)=NC(=O)c1cn(Cc2ccccc2)c2ccccc12` [Example 16, 1-Benzyl-3-indoloylguanidine hydrochloride] the “Inhibition of Na^+/H^+ Exchanger MEC” value was 3.0 µM.
`CC(C)n1cc(C(=O)N=C(N)N)c2ccccc21` [Example 17, 1-Isopropyl-3-indoloylguanidine hydrochloride] was tested, and the “Inhibition of Na^+/H^+ Exchanger MEC” value was 3.0 µM.
